Measured values published in article doi:10.1101/451823.
Where two headings read alike, the source gives them in different places. These are yes or no findings as the source states them, for the method shown. Binding seen in cells or lysates may run through a third protein. Here binding means that the protein was enriched with, or labelled near, the bait; the list need not be complete.

Amino acid sequences for entries named in this document (tags omitted).
UniProt O14744: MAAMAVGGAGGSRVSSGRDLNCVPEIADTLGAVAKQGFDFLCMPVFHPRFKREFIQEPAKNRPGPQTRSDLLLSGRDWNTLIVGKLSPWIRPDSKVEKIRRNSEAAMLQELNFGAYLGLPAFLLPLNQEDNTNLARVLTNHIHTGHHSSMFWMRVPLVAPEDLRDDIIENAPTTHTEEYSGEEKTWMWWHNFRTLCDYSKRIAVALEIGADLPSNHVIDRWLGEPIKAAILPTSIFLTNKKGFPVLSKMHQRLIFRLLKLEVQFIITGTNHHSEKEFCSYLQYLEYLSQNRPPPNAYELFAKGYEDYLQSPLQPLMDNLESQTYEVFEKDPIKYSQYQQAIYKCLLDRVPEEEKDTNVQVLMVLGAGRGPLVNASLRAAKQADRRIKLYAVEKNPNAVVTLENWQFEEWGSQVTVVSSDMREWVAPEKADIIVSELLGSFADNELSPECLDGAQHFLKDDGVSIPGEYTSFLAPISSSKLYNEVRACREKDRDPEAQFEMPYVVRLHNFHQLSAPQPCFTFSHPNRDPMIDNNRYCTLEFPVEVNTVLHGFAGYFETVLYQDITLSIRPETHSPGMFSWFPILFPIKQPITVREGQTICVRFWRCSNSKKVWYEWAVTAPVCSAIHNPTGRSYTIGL
UniProt P17844: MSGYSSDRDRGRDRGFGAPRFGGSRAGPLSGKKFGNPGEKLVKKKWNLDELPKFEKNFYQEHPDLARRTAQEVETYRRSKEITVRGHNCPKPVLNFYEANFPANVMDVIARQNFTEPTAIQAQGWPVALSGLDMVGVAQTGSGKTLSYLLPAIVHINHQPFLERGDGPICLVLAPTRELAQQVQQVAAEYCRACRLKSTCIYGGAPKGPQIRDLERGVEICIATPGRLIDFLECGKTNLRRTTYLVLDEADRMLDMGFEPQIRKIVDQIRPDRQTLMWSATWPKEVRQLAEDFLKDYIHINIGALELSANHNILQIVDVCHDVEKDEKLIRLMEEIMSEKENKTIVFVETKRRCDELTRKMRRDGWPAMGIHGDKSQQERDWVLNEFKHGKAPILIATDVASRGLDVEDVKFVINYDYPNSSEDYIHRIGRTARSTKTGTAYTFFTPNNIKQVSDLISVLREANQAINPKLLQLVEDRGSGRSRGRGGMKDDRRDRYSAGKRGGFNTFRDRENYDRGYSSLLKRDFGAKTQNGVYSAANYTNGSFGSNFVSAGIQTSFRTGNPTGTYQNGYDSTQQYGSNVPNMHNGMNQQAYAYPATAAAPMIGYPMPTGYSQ
UniProt Q92841: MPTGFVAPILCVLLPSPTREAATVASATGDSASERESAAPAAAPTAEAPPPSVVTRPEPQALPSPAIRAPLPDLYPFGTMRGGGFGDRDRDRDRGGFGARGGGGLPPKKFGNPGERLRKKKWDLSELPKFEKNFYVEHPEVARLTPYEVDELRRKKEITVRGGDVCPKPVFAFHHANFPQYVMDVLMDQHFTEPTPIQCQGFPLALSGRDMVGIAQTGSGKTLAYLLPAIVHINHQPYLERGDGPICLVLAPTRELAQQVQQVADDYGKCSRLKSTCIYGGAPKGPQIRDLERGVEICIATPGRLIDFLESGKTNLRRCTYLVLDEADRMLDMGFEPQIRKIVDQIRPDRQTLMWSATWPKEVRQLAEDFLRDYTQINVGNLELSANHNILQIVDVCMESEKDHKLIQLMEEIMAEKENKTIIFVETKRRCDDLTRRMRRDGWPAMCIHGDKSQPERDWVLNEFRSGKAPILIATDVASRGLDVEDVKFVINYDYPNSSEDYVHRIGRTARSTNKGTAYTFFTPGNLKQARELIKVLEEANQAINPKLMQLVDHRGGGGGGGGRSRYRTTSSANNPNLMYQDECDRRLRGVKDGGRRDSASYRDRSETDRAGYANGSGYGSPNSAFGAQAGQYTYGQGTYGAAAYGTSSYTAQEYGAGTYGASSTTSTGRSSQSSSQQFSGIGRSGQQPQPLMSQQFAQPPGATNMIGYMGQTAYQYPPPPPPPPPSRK
UniProt Q07955: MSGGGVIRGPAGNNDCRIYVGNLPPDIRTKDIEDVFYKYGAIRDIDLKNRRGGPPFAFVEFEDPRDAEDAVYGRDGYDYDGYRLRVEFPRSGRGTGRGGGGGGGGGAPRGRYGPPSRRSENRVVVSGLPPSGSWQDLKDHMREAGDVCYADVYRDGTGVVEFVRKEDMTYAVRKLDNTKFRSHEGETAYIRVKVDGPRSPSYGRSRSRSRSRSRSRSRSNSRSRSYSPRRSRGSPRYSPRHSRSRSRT

Experiments:
Assay in all cases: affinity purification with mass spectrometry
[1] = target: PRMT5 (UniProt O14744)
[2] = target: Flag-DDX5 (human) (UniProt P17844)
[3] = target: Flag-DDX5 (human) (UniProt P17844); remark: listed apart in the source

binding [2]	binding [3]	Molecule	further results
–	–	DDX5 (from UniProt P17844 1-614)	binding [1]: binds
binds	–	DDX17 (from UniProt Q92841 1-729)	–
binds	–	SRSF1 (from UniProt Q07955 1-248)	–
–	binds	XRN2 (enzyme, UniProt Q9H0D6 1-950) MGVPAFFRWLSRKYPSIIVNCVEEKPKECNGVKIPVDASKPNPNDVEFDNLYLDMNGIIHPCTHPEDKPAPKNEDEMMVAIFEYIDRLFSIVRPRRLLYMAIDGVAPRAKMNQQRSRRFRASKEGMEAAVEKQRVREEILAKGGFLPPEEIKERFDSNCITPGTEFMDNLAKCLRYYIADRLNNDPGWKNLTVILSDASAPGEGEHKIMDYIRRQRAQPNHDPNTHHCLCGADADLIMLGLATHEPNFTIIREEFKPNKPKPCGLCNQFGHEVKDCEGLPREKKGKHDELADSLPCAEGEFIFLRLNVLREYLERELTMASLPFTFDVERSIDDWVFMCFFVGNDFLPHLPSLEIRENAIDRLVNIYKNVVHKTGGYLTESGYVNLQRVQMIMLAVGEVEDSIFKKRKDDEDSFRRRQKEKRKRMKRDQPAFTPSGILTPHALGSRNSPGSQVASNPRQAAYEMRMQNNSSPSISPNTSFTSDGSPSPLGGIKRKAEDSDSEPEPEDNVRLWEAGWKQRYYKNKFDVDAADEKFRRKVVQSYVEGLCWVLRYYYQGCASWKWYYPFHYAPFASDFEGIADMPSDFEKGTKPFKPLEQLMGVFPAASGNFLPPSWRKLMSDPDSSIIDFYPEDFAIDLNGKKYAWQGVALLPFVDERRLRAALEEVYPDLTPEETRRNSLGGDVLFVGKHHPLHDFILELYQTGSTEPVEVPPELCHGIQGKFSLDEEAILPDQIVCSPVPMLRDLTQNTVVSINFKDPQFAEDYIFKAVMLPGARKPAAVLKPSDWEKSSNGRQWKPQLGFNRDRRPVHLDQAAFRTLGHVMPRGSGTGIYSNAAPPPVTYQGNLYRPLLRGQAQIPKLMSNMRPQDSWRGPPPLFQQQRFDRGVGAEPLLPWNRMLQTQNAAFQPNQYQMLAGPGGYPPRRDDRGGRQGYPREGRKYPLPPPSGRYNWN	–
–	binds	DDX1 (protein, UniProt Q92499 1-740) MAAFSEMGVMPEIAQAVEEMDWLLPTDIQAESIPLILGGGDVLMAAETGSGKTGAFSIPVIQIVYETLKDQQEGKKGKTTIKTGASVLNKWQMNPYDRGSAFAIGSDGLCCQSREVKEWHGCRATKGLMKGKHYYEVSCHDQGLCRVGWSTMQASLDLGTDKFGFGFGGTGKKSHNKQFDNYGEEFTMHDTIGCYLDIDKGHVKFSKNGKDLGLAFEIPPHMKNQALFPACVLKNAELKFNFGEEEFKFPPKDGFVALSKAPDGYIVKSQHSGNAQVTQTKFLPNAPKALIVEPSRELAEQTLNNIKQFKKYIDNPKLRELLIIGGVAARDQLSVLENGVDIVVGTPGRLDDLVSTGKLNLSQVRFLVLDEADGLLSQGYSDFINRMHNQIPQVTSDGKRLQVIVCSATLHSFDVKKLSEKIMHFPTWVDLKGEDSVPDTVHHVVVPVNPKTDRLWERLGKSHIRTDDVHAKDNTRPGANSPEMWSEAIKILKGEYAVRAIKEHKMDQAIIFCRTKIDCDNLEQYFIQQGGGPDKKGHQFSCVCLHGDRKPHERKQNLERFKKGDVRFLICTDVAARGIDIHGVPYVINVTLPDEKQNYVHRIGRVGRAERMGLAISLVATEKEKVWYHVCSSRGKGCYNTRLKEDGGCTIWYNEMQLLSEIEEHLNCTISQVEPDIKVPVDEFDGKVTYGQKRAAGGGSYKGHVDILAPTVQELAALEKEAQTSFLHLGYLPNQLFRTF	–
